This is one part of the list. Residues, ends and D or L forms follow the SMILES beside them. *: point of attachment. Cbz = O=C(OCc1ccccc1)*
Tests used:
Assay in all cases: log2 fold change, soluble protein after heating vs DMSO (PISA); higher = thermal stabilisation; K562 cells, 10 uM, 30 min; active = over 0.2 and 3.5 SD of the protein, either way, in both replicates (recomputed)
IRAK-1-4 Inhibitor I = compound: C1COCCN1CCN2C3=CC=CC=C3N=C2NC(=O)C4=CC(=CC=C4)[N+](=O)[O-] [IRAK-1-4 Inhibitor I]
How it was run: (§1)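 K562 cells (2×10^6 cells/mL) were treated with 10 μM compound for 30 min, and aliquots were heated for 3 min over 48°C-58°C. Pooled aliquots were extracted in PBS with 0.5% NP-40 at 4°C, and the supernatant after 21,000xg for 90 min was measured by TMTpro 16plex LC-MS/MS with channel sums equalised. Reported thermal stability, relative to control samples and from duplicates, is a log2 fold change.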

Sequences of proteins named here, by UniProt entry; tags and fusion partners are left off. A change or cut given only in a name is not applied to a line headed by its entry.
UniProt Q8NCL4: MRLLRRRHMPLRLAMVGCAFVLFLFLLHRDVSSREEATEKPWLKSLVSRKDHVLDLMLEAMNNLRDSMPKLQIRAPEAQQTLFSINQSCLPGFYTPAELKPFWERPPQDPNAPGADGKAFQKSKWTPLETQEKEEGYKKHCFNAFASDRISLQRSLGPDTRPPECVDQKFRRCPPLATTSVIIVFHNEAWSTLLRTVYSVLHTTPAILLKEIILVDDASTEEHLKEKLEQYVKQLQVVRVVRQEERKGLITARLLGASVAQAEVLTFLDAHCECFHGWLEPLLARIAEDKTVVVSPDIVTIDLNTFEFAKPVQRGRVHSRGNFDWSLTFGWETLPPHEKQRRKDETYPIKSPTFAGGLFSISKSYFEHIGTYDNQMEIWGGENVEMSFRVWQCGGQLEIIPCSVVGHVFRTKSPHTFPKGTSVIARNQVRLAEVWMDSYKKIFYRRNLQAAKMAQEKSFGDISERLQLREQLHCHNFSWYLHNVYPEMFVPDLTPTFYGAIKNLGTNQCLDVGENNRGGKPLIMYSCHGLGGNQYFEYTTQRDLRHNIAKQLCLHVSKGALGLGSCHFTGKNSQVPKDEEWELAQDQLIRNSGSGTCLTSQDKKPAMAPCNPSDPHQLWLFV
UniProt P11413, whole entry, looked up: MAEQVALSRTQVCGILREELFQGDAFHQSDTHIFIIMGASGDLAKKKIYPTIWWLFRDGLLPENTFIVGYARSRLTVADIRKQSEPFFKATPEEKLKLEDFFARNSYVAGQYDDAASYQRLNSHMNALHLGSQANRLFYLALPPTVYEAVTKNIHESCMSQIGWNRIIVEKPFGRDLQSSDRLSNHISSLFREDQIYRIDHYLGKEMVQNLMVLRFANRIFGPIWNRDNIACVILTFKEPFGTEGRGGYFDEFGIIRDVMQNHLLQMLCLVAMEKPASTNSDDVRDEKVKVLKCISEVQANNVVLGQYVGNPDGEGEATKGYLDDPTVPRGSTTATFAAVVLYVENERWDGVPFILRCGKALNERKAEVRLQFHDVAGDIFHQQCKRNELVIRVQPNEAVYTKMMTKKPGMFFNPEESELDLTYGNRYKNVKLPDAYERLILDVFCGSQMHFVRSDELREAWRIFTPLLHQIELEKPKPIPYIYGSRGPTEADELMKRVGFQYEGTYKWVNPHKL
UniProt Q86YP4: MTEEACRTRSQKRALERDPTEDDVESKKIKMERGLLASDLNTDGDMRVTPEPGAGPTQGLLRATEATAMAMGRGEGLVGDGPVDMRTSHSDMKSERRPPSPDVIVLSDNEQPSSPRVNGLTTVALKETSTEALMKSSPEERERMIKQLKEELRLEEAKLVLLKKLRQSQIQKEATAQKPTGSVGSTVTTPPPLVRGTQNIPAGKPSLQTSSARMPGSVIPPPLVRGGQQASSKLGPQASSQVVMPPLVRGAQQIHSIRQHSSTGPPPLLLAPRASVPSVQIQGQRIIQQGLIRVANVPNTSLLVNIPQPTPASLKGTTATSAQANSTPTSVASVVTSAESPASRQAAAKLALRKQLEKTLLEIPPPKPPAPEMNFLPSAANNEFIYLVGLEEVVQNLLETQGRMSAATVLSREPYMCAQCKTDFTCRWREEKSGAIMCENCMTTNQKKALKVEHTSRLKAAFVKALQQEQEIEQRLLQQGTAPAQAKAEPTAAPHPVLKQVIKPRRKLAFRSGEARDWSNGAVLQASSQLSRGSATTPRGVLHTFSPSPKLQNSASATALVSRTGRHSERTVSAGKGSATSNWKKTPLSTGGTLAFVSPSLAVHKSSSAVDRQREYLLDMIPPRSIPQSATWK
UniProt P57678: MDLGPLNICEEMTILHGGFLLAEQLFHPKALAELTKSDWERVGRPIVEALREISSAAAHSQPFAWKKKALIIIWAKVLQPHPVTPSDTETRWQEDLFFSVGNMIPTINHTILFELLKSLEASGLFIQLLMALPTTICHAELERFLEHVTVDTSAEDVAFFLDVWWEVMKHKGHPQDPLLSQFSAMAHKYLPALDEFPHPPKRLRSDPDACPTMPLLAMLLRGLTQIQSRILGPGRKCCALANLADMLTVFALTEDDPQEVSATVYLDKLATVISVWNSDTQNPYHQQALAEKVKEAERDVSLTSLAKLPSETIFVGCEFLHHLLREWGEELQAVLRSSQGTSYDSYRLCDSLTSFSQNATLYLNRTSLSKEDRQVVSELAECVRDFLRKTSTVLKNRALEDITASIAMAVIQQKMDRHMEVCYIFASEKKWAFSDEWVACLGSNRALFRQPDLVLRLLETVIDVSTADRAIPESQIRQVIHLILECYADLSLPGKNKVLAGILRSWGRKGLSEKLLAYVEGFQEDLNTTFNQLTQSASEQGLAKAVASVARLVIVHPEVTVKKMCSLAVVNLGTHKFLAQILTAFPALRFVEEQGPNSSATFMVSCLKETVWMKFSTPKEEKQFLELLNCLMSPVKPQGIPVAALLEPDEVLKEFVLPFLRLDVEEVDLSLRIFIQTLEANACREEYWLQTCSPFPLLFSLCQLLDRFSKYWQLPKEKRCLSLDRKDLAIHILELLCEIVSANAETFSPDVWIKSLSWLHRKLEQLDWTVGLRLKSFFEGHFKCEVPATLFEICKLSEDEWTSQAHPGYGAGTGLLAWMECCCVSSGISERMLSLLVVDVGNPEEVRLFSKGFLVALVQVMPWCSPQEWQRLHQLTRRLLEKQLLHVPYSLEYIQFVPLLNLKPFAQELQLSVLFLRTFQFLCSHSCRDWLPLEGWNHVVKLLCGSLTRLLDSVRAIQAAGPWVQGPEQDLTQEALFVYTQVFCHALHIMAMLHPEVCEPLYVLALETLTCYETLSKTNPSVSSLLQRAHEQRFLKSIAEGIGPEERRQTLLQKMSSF
UniProt Q9NY12: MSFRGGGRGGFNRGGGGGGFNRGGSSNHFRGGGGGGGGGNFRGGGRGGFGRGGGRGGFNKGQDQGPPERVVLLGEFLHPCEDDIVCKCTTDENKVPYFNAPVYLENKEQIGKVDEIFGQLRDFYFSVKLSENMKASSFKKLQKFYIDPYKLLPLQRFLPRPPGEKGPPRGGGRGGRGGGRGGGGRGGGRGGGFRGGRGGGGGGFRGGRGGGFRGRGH
UniProt Q96AE4: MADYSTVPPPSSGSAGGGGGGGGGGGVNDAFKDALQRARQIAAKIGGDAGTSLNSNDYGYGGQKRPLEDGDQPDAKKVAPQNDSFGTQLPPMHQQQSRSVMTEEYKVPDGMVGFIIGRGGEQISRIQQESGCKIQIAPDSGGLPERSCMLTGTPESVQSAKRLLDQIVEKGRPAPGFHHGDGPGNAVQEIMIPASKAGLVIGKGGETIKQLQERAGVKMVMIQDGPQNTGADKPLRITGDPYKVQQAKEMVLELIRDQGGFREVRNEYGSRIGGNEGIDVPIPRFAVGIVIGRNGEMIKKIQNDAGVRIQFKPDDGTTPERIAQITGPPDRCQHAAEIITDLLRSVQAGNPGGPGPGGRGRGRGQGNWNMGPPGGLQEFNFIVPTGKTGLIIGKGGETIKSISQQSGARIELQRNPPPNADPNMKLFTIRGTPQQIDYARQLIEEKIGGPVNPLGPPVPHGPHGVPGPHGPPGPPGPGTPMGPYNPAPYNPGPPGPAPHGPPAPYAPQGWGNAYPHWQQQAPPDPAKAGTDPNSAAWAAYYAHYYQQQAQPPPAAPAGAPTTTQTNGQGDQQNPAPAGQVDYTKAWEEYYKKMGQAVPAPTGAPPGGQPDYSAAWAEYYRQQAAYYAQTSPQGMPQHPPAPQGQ
UniProt P51114, whole entry, looked up: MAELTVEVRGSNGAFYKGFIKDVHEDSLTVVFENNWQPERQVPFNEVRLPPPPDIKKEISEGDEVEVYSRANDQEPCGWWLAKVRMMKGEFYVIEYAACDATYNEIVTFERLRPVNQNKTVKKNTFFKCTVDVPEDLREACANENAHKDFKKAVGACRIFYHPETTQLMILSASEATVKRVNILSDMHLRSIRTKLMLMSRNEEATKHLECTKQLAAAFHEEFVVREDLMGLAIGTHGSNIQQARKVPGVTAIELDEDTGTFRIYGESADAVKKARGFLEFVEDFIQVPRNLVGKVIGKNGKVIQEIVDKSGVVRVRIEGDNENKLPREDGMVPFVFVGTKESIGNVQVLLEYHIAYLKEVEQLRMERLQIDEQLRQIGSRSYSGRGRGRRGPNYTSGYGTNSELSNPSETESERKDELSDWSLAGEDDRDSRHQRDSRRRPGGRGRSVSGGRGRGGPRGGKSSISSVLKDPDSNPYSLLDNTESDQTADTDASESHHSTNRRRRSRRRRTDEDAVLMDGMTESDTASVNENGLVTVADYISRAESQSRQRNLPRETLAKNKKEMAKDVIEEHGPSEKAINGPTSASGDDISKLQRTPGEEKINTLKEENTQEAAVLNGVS
UniProt P34059: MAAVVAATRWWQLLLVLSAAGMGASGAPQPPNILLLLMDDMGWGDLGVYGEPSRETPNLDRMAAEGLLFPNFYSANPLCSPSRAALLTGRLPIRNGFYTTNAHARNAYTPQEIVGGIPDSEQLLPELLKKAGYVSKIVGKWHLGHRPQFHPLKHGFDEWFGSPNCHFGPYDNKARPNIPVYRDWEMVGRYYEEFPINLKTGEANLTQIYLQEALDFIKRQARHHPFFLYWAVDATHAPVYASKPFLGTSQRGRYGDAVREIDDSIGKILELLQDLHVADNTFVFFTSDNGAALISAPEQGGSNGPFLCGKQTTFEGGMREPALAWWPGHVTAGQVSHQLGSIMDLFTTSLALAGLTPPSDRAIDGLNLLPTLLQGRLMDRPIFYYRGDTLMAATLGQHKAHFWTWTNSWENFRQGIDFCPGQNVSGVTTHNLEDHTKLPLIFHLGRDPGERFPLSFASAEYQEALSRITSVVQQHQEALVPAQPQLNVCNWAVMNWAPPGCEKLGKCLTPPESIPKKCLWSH
UniProt P35637: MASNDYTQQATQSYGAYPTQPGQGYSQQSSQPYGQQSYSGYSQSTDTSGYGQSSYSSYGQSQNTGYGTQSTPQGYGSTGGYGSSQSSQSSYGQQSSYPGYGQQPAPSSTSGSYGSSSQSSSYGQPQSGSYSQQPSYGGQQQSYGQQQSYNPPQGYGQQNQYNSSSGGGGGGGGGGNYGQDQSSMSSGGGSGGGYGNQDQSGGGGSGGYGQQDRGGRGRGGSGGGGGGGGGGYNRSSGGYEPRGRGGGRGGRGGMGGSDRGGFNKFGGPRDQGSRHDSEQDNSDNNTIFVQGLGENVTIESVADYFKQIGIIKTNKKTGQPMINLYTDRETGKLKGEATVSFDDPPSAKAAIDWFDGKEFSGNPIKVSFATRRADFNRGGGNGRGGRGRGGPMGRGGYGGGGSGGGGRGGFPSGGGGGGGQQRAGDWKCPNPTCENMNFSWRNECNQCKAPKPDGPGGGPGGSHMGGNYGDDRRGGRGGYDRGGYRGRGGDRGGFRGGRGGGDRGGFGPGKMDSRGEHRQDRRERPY
UniProt Q9C0B1, whole entry, looked up: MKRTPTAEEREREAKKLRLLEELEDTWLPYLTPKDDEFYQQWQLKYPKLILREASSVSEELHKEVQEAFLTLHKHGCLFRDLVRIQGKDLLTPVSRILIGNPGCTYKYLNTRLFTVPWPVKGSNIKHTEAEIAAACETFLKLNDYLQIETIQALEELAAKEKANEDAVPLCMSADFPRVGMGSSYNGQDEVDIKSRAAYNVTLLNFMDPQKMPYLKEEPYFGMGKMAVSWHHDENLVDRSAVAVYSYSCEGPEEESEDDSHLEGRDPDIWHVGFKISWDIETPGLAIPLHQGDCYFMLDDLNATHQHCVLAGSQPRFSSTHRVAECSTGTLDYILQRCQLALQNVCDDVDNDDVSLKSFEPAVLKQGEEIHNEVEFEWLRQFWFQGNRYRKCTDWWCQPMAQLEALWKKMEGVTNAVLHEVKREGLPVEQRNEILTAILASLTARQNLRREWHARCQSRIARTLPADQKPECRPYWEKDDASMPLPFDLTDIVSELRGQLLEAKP
UniProt Q9NZ52: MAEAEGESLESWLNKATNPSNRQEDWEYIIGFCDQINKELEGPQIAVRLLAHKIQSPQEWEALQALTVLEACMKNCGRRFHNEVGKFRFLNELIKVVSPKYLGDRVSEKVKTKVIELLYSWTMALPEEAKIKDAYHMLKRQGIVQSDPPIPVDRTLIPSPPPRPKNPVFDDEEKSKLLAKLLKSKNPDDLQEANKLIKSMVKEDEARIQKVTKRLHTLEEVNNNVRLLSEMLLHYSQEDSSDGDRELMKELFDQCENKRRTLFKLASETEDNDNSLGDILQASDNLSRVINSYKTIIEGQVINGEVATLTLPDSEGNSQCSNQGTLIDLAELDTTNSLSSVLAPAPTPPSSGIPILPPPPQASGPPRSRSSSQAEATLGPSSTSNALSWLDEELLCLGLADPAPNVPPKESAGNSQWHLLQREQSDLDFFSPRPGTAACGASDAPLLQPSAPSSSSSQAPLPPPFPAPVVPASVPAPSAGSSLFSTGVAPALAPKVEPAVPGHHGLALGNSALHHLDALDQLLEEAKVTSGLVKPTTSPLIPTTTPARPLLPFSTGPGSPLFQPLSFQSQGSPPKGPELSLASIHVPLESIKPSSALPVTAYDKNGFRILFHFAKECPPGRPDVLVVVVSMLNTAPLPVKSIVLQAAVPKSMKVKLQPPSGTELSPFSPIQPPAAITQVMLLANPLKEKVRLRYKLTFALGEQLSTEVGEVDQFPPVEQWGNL

ibrutinib = compound: C=CC(=O)N1CCC[C@@H](n2nc(-c3ccc(Oc4ccccc4)cc3)c3c(N)ncnc32)C1 [ibrutinib]
How it was run: as §1

[1] = compound: CC(=O)c1cnc2ccc(-c3cc(Cl)c(O)c(Cl)c3)nc2c1N[C@H]1CC[C@H](CN(C)C)CC1
How it was run: as §1

ralimetinib = compound: CC(C)(C)Cn1c(N)nc2ccc(-c3[nH]c(C(C)(C)C)nc3-c3ccc(F)cc3)nc21 [ralimetinib]
How it was run: as §1

[2] = compound: CC(C)(O)CC(=O)NCCn1ccc2ncnc(Nc3ccc(Oc4cccc(C(F)(F)F)c4)c(Cl)c3)c21
How it was run: as §1

[3] = compound: CC(C)C1=C2N=C(C=C(N2N=C1)NCC3=CC=CC=C3)NCCCCCCN
How it was run: as §1

[4] = compound: CC(C)C[C@@H](C=O)NC(=O)[C@H](CC(C)C)NC(=O)[C@H](CC(C)C)NC(=O)OCc1ccccc1
How it was run: as §1

pinometostat = compound: CC(C)N(C[C@H]1O[C@@H](n2cnc3c(N)ncnc32)[C@H](O)[C@@H]1O)[C@H]1C[C@@H](CCc2nc3cc(C(C)(C)C)ccc3[nH]2)C1 [pinometostat]
How it was run: as §1

[5] = compound: CC1=C(C(CC(=O)N1)C2=CC=C(C=C2)C(F)(F)F)C(=O)NC3=C(C=C4C(=C3)C=NN4)F
How it was run: as §1

[6] = compound: CC1=C(C2=C(C=C1)C(=O)C3=CC=CC=C3N2CCCN)C
How it was run: as §1

Measured: log2 fold change

GALNT6 (UniProt Q8NCL4)
inactive: IRAK-1-4 Inhibitor I -0.203 | ibrutinib 0.19 | [1] -0.045 | ralimetinib -0.142 | [2] -0.079 | [3] 0.122 | [4] 0.094 | pinometostat -0.084 | [5] -0.012 | [6] -0.035

GART (UniProt C9JZG2)
inactive: IRAK-1-4 Inhibitor I -0.169 | ibrutinib -0.178 | [1] -0.065 | ralimetinib -0.078 | [2] -0.056 | [3] -0.309 | [4] -0.128 | pinometostat -0.041 | [5] 0.148 | [6] -0.06

G6PD isoform 2 (UniProt P11413)
inactive: IRAK-1-4 Inhibitor I 0.053 | ibrutinib -0.019 | [1] -0.029 | ralimetinib -0.019 | [2] -0.033 | [3] 0.012 | [4] 0.005 | pinometostat -0.004 | [5] -0.016 | [6] 0.019

GCAT isoform 2 (UniProt O75600)
inactive: IRAK-1-4 Inhibitor I 0.066 | ibrutinib 0.046 | [1] 0.03 | ralimetinib 0.039 | [2] -0.081 | [3] -0.126 | [4] 0.066 | pinometostat -0.009 | [5] 0.06 | [6] -0.007

GATAD2A isoform 3 (UniProt Q86YP4)
inactive: IRAK-1-4 Inhibitor I -0.048 | ibrutinib -0.044 | [1] -0.072 | ralimetinib 0.036 | [2] -0.115 | [3] -0.204 | [4] -0.001 | pinometostat -0.032 | [5] 0.015 | [6] 0.043

GALE (UniProt Q14376)
inactive: IRAK-1-4 Inhibitor I 0.013 | ibrutinib 0.035 | [1] -0.102 | ralimetinib -0.042 | [2] -0.039 | [3] 0.03 | [4] -0.039 | pinometostat -0.053 | [5] -0.008 | [6] 0.067

GET4 (UniProt Q7L5D6)
inactive: IRAK-1-4 Inhibitor I 0.016 | ibrutinib -0.025 | [1] -0.034 | ralimetinib 0.022 | [2] 0.006 | [3] -0.12 | [4] 0.074 | pinometostat 0.05 | [5] -0.038 | [6] 0.004

GCN1 (UniProt Q92616)
inactive: IRAK-1-4 Inhibitor I -0.212 | ibrutinib -0.022 | [1] 0.271 | ralimetinib 0.315 | [2] 0.029 | [3] -0.302 | [4] 0.211 | pinometostat 0.649 | [5] -0.027 | [6] -0.07

GALT (UniProt P07902)
inactive: IRAK-1-4 Inhibitor I 0.066 | ibrutinib 0.045 | [1] -0.09 | ralimetinib -0.068 | [2] -0.064 | [3] 0.096 | [4] 0.016 | pinometostat -0.089 | [5] 0.263 | [6] 0.001

GBA (UniProt P04062)
inactive: IRAK-1-4 Inhibitor I -0.02 | ibrutinib -0.001 | [1] 0.002 | ralimetinib -0.031 | [2] -0.001 | [3] 0.028 | [4] 0.113 | pinometostat -0.032 | [5] 0.04 | [6] 0.09

GEMIN4 (UniProt P57678)
inactive: IRAK-1-4 Inhibitor I -0.241 | ibrutinib 0.114 | [1] 0.224 | ralimetinib 0.129 | [2] -0.001 | [3] -0.268 | [4] 0.147 | pinometostat 0.407 | [5] -0.031 | [6] -0.75

FUT11 (UniProt Q495W5)
inactive: IRAK-1-4 Inhibitor I 0.049 | ibrutinib 0.045 | [1] -0.036 | ralimetinib -0.049 | [2] -0.015 | [3] 0.368 | [4] 0.037 | pinometostat 0.001 | [5] -0.002 | [6] -0.245

GAR1 (UniProt Q9NY12)
inactive: IRAK-1-4 Inhibitor I -0.092 | ibrutinib 0.005 | [1] 0.028 | ralimetinib 0.074 | [2] 0.067 | [3] 0.025 | [4] 0.161 | pinometostat 0.236 | [5] -0.039 | [6] -0.14

FUBP1 isoform 2 (UniProt Q96AE4)
inactive: IRAK-1-4 Inhibitor I 0.027 | ibrutinib -0.008 | [1] -0.003 | ralimetinib -0.029 | [2] 0.004 | [3] 0.054 | [4] -0.006 | pinometostat -0.078 | [5] 0.008 | [6] 0.04

GAN (UniProt Q9H2C0)
inactive: IRAK-1-4 Inhibitor I 0.057 | ibrutinib 0.024 | [1] -0.06 | ralimetinib -0.032 | [2] 0.038 | [3] 0.025 | [4] -0.027 | pinometostat -0.014 | [5] 0.01 | [6] 0.057

FXN (UniProt Q16595)
inactive: IRAK-1-4 Inhibitor I -0.012 | ibrutinib 0.026 | [1] -0.023 | ralimetinib -0.02 | [2] 0.004 | [3] -0.003 | [4] -0.07 | pinometostat -0.025 | [5] -0.045 | [6] 0.177

FXR2 (UniProt P51116)
inactive: IRAK-1-4 Inhibitor I -0.327 | ibrutinib 0.044 | [1] 0.017 | ralimetinib 0.3 | [2] 0.079 | [3] -0.052 | [4] 0.246 | pinometostat 0.343 | [5] -0.062 | [6] -0.024

Fetched one by one from the entries so far (2):
GAN (UniProt Q9H2C0)
inactive: IRAK-1-4 Inhibitor I 0.057 | ibrutinib 0.024 | [1] -0.06 | ralimetinib -0.032 | [2] 0.038 | [3] 0.025 | [4] -0.027 | pinometostat -0.014 | [5] 0.01 | [6] 0.057

FXR2 (UniProt P51116)
inactive: IRAK-1-4 Inhibitor I -0.327 | ibrutinib 0.044 | [1] 0.017 | ralimetinib 0.3 | [2] 0.079 | [3] -0.052 | [4] 0.246 | pinometostat 0.343 | [5] -0.062 | [6] -0.024

Remaining list, next part:

GAB1 isoform 2 (UniProt Q13480)
inactive: IRAK-1-4 Inhibitor I 0.044 | ibrutinib -0.006 | [1] 0.02 | ralimetinib 0.009 | [2] -0.052 | [3] 0.024 | [4] 0.065 | pinometostat 0.052 | [5] -0.036 | [6] 0.019

FXR1 (UniProt P51114)
inactive: IRAK-1-4 Inhibitor I -0.073 | ibrutinib 0.028 | [1] -0.033 | ralimetinib 0.167 | [2] 0.118 | [3] -0.243 | [4] 0.233 | pinometostat 0.303 | [5] 0.018 | [6] 0.024

GHITM (UniProt Q9H3K2)
inactive: IRAK-1-4 Inhibitor I 0.039 | ibrutinib 0.034 | [1] 0.013 | ralimetinib -0.012 | [2] -0.016 | [3] -0.082 | [4] -0.002 | pinometostat -0.019 | [5] 0.013 | [6] 0

GALNT5 (UniProt Q7Z7M9)
inactive: IRAK-1-4 Inhibitor I -0.003 | ibrutinib -0.003 | [1] -0.047 | ralimetinib -0.042 | [2] -0.01 | [3] 0.066 | [4] -0.011 | pinometostat 0.034 | [5] -0.022 | [6] 0.014

GALNS (UniProt P34059)
inactive: IRAK-1-4 Inhibitor I -0.072 | ibrutinib 0.039 | [1] -0.017 | ralimetinib 0.043 | [2] 0.018 | [3] 0.1 | [4] -0.026 | pinometostat 0.047 | [5] -0.037 | [6] -0.002

FUS (UniProt P35637)
inactive: IRAK-1-4 Inhibitor I -0.134 | ibrutinib 0.042 | [1] 0.07 | ralimetinib 0.11 | [2] 0.105 | [3] 0.187 | [4] 0.058 | pinometostat 0.016 | [5] 0.033 | [6] 0.251

GDI2 (UniProt P50395)
inactive: IRAK-1-4 Inhibitor I 0.046 | ibrutinib 0.008 | [1] 0.002 | ralimetinib 0.035 | [2] 0.002 | [3] 0.092 | [4] -0.008 | pinometostat -0.016 | [5] 0.025 | [6] -0.008

FTO (UniProt Q9C0B1)
inactive: IRAK-1-4 Inhibitor I 0.075 | ibrutinib -0.019 | [1] 0.021 | ralimetinib -0.03 | [2] -0.061 | [3] 0.066 | [4] -0.029 | pinometostat -0.04 | [5] -0.018 | [6] 0.008

GALM (UniProt Q96C23)
inactive: IRAK-1-4 Inhibitor I 0.047 | ibrutinib 0.261 | [1] -0.08 | ralimetinib -0.051 | [2] -0.066 | [3] -0.005 | [4] 0.025 | pinometostat -0.008 | [5] 0.002 | [6] 0.027

GDAP1 (UniProt Q8TB36)
inactive: IRAK-1-4 Inhibitor I -0.06 | ibrutinib -0.022 | [1] 0.02 | ralimetinib 0.089 | [2] 0.11 | [3] 0.146 | [4] -0.147 | pinometostat 0.003 | [5] -0.018 | [6] 0.018

GGA3 (UniProt Q9NZ52)
inactive: IRAK-1-4 Inhibitor I -0.022 | ibrutinib -0.099 | [1] -0.018 | ralimetinib 0.035 | [2] -0.024 | [3] 0.049 | [4] -0.049 | pinometostat 0.029 | [5] -0.022 | [6] 0.092

GART (UniProt P22102)
inactive: IRAK-1-4 Inhibitor I -0.041 | ibrutinib -0.008 | [1] -0.013 | ralimetinib 0.006 | [2] 0.009 | [3] -0.188 | [4] -0.045 | pinometostat 0.021 | [5] -0.05 | [6] 0.003
